PubChem BioAssay AID1794845 (National Center for Advancing Translational Sciences (NCATS), 2023)
Out of some 6,900 compounds screened, fewer than 10 were called active. Calls follow the shape of the dose curve; as a rule, active = well fitted curve in the direction sought with a large enough effect; inconclusive = small, poorly fitted or top-dose-only effect, or another doubt; inactive = no such curve, though single readings can be large or run the other way. This is one part of the list.

By UniProt entry, the sequences of proteins in these tests, tags left out. Where a name states a change or a piece, a line headed by the entry shows the natural chain unless it says otherwise.
UniProt C7C422: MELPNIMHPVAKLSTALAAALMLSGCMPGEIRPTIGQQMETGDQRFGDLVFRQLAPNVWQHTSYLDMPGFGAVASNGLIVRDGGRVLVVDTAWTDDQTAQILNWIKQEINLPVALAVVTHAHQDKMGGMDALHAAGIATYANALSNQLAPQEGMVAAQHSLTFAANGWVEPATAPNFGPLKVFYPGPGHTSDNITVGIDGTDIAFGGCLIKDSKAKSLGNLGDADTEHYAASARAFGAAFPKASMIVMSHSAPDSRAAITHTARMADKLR

Each molecule was assayed against Metallo-beta-lactamase type 2 (Klebsiella pneumoniae) (UniProt C7C422) (assay: qHTS to identify inhibitors of the New Delhi Metallo-beta-lactamase (NDM): primary screen against the NCATS Gemini Collection). Details: NDM-1 enzyme, meropenem hydrolysis, absorbance 300 nm; at 38.4 µM (top of the series) unless noted.
Summary of the method: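 NDM-1 at 2 nM final in 50 mM HEPES pH 7.0, 1 uM ZnSO4, 0.01% Tween20, preincubated >30 min with compound. Meropenem 50 uM final added; absorbance at 300 nm after 30 min.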
Also: % of control where 0% means no effect.

COc1ccc(-c2ccc3nnc(CNC(=O)c4ccoc4)n3n2)cc1 was tested. Which activity % (negative = inhibition) did it give?
The activity % (negative = inhibition) was inactive: 8.36%.

For CCCC(=O)N1CCC(N2C(=O)N(Cc3cccnc3)CC23CCOC3)CC1 (centres undefined), which activity % (negative = inhibition) is on record?
Its activity % (negative = inhibition) is inactive: 3.93%.

Which activity % (negative = inhibition) does the source give for CC(C)Cc1nc(CN2CCn3nc(C(O)c4ccnn4C)cc3C2)no1 (centres undefined) here?
The activity % (negative = inhibition) was inactive: -2.55%.

Which activity % (negative = inhibition) does the source give for CC(Oc1ccc2ccccc2c1)C(=O)N(C)Cc1ccc2nsnc2c1 (centres undefined) here?
Its activity % (negative = inhibition) is inactive: 23.8%.

O=C(c1ccsc1)N1CCC2(CCCN(CC3CCC3)C2=O)C1 (centres undefined) was tested. Which activity % (negative = inhibition) did it give?
The activity % (negative = inhibition) was inactive: -1.29%.

With O=C1CCCCN1CCNc1ccc(-c2nc(-c3ccccc3F)no2)cn1 as the molecule, how does the activity % (negative = inhibition) read?
Its activity % (negative = inhibition) is inactive: 12.3%.

Which activity % (negative = inhibition) does the source give for O=C(NC1CCN(c2cc(-c3ccc(F)cc3)[nH]n2)C1)c1cc2ccccc2[nH]1 (centres undefined) here?
Its activity % (negative = inhibition) is inactive: 8.83%.

Cc1cc(C(=O)NC2CCCC2)c2c(C3CCNC3)noc2n1 (centres undefined) was tested. Which activity % (negative = inhibition) did it give?
Its activity % (negative = inhibition) is inactive: 1.69%.

How did the activity % (negative = inhibition) turn out when FC(F)(F)c1ccc(N2C3CCC2CN(Cc2ccc(-c4ccccc4)cc2)C3)cc1 was run?
Its activity % (negative = inhibition) is inactive: 1.69%.

How did the activity % (negative = inhibition) turn out when COCCc1noc(C2Cc3ccccc3N2C(=O)Cc2ccc(OC)c(OC)c2)n1 (centres undefined) was run?
The activity % (negative = inhibition) was inactive: 4.38%.

How did the activity % (negative = inhibition) turn out when COc1ccc(N2CCN(C(=O)c3cc(NC(C)=O)cc4nc(C)ccc34)CC2)cc1 was run?
The activity % (negative = inhibition) was inactive: 4.08%.

CC(=O)N[C@H]1CN(S(=O)(=O)c2ccc(C)c(F)c2)C[C@@H]1C(C)C was tested. Which activity % (negative = inhibition) did it give?
The activity % (negative = inhibition) was inactive: 18.9%.

For COc1ccc(C2CCC(=O)N2Cc2ccc(F)cc2)cc1 (centres undefined), which activity % (negative = inhibition) is on record?
The activity % (negative = inhibition) was inactive: -2.11%.

With O=C(Cn1cccc1-c1nc(-c2ccccc2)no1)N1CCN(c2ccccc2)CC1 as the molecule, how does the activity % (negative = inhibition) read?
The activity % (negative = inhibition) was inactive: -0.659%.

Which activity % (negative = inhibition) does the source give for CC(C)C(=O)NCC(=O)N1CCC2(CC1)Nc1ccccc1NC2=O here?
Its activity % (negative = inhibition) is inactive: 8.84%.

Cc1cc(C(=O)N2CCn3nc(C(C)O)cc3C2)c2ccc(F)cc2n1 (centres undefined) was tested. Which activity % (negative = inhibition) did it give?
Its activity % (negative = inhibition) is inactive: -3.09%.

With CCN1CCN(C(=O)c2cn3cc(-c4cccnc4)sc3n2)CC1 as the molecule, how does the activity % (negative = inhibition) read?
The activity % (negative = inhibition) was inactive: 15.3% [at 57.5 µM].

Cn1cnc2ccc(-c3ccncc3)nc2c1=O was tested. Which activity % (negative = inhibition) did it give?
The activity % (negative = inhibition) was inactive: 106% [at 77.1 µM].

Which activity % (negative = inhibition) does the source give for Cc1cc(C)cc(N2CCC(N)C2=O)c1 (centres undefined) here?
Its activity % (negative = inhibition) is inactive: -0.27%.

For O=C1CO[C@H]2CN(Cc3ccncc3)C[C@H]2N1Cc1ccc(F)cc1, which activity % (negative = inhibition) is on record?
The activity % (negative = inhibition) was inactive: 5.45% [at 57.5 µM].

Which activity % (negative = inhibition) does the source give for Cn1nc(-c2cccc(F)c2)c(N2CCCC2)c1NC(=O)NCc1ccccc1 here?
The activity % (negative = inhibition) was inactive: 15.1%.

Which activity % (negative = inhibition) does the source give for CC(C)(C)C(=O)N1CCC2(CC1)C(=O)N(CC(=O)Nc1cccc(Cl)c1)CN2c1ccccc1 here?
Its activity % (negative = inhibition) is inactive: -3.63%.

Which activity % (negative = inhibition) does the source give for COc1ccc(-c2cc(-c3cnn(C)c3)cn3cncc23)cn1 here?
Its activity % (negative = inhibition) is inactive: 4.33% [at 57.5 µM].

How did the activity % (negative = inhibition) turn out when CN1C(=O)CC(C(=O)O)C12CCN(Cc1nc3ccsc3c(=O)[nH]1)CC2 (centres undefined) was run?
Its activity % (negative = inhibition) is inactive: -6.63%.
